No end group written: not given here. *: point of attachment. Palmitoyl = CCCCCCCCCCCCCCCC(=O)*
Experiment: general procedure: Fmoc solid-phase peptide synthesis; Rink amide MBHA resin; HBTU/DIEA
Details: whole synthesis, absorbance at 220 nm

| Substance | final purity (method not given) [%] |
| --- | --- |
| Palmitoyl-VVVAAAEEE | >95 |
| Palmitoyl-VVVAAAEEEMQMKKVLDS | >95 |
